Literature values in patent US11542290B2 (priority 2018, dated 2023).

Test system: MDCK-MDR1 cells
Conditions: cited from earlier work

With `CC(C)NCC(O)COc1ccc(CC(N)=O)cc1` (stereo not shown) [Atenolol] as the molecule, how does the “Brain penetrance of reference compound (in words)” value read?
The value was “limited brain penetrance”.
